# In the supplement of paper PMC4604168 (melanoma cell lines):
# This is one part of the list. Single values are uncertain, as repeats are few or missing.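 The apoptosis fraction was the count of cleaved-PARP antibody-stained nuclei relative to all DNA-stained nuclei, imaged in 1,536-well plates. Screening doses were set so most cells survived, and baseline and induced cleaved-PARP levels vary greatly across cell lines.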
# How the values were obtained:
# Assay in all cases: cleaved PARP positive nuclei fraction relative to DMSO control; melanoma cells; higher = more apoptosis
# Conditions in all cases: library dose: low library concentration; 72 h
# WM115 = test system: WM115
# WM1716 = test system: WM1716
# WM1745 = test system: WM1745
# WM3526 = test system: WM3526
# WM3619 = test system: WM3619
# WM451Lu = test system: WM451Lu
Structure (SMILES),cleaved PARP positive nuclei fraction (WM115) [%],cleaved PARP positive nuclei fraction (WM1716) [%],cleaved PARP positive nuclei fraction (WM1745) [%],cleaved PARP positive nuclei fraction (WM3526) [%],cleaved PARP positive nuclei fraction (WM3619) [%],cleaved PARP positive nuclei fraction (WM451Lu) [%]
"O=C(Nc1ccccc1)c1cc([N+](=O)[O-])ccc1Cl + O=C(Oc1ccc([N+](=O)[O-])cc1)N1CCC(C(O)(c2ccc3c(c2)OCO3)c2ccc3c(c2)OCO3)CC1 [JZL184] (first compound 2 µM, partner dose 1 µM)",273,121,88,66.2,78,131
"N.N.[Cl][Pt][Cl] [cisplatin] + NC(=O)Nc1cc(-c2cccc(F)c2)sc1C(=O)N[C@H]1CCCNC1 [AZD7762] (first compound 1.6 µM, partner dose 0.02 µM)",145,47.4,91,62.2,102,128
"O=C(Nc1ccccc1)c1cc([N+](=O)[O-])ccc1Cl + C/C(O)=C(\C#N)C(=O)Nc1cc(Br)ccc1Br [LFM-A13] (first compound 2 µM, partner dose 2 µM)",305,147,115,34.4,72.1,168
"N.N.[Cl][Pt][Cl] [cisplatin] + CN(NC(=O)CC(=O)NN(C)C(=S)c1ccccc1)C(=S)c1ccccc1 [STA4783] (first compound 1.6 µM, partner dose 0.006 µM)",108,33.8,78.5,68,112,99.8
"Cc1cc(Nc2cc(N3CCN(C)CC3)nc(/C=C/c3ccccc3)n2)n[nH]1 + N.N.[Cl][Pt][Cl] [cisplatin] (first compound 0.04 µM, partner dose 1.6 µM)",122,842,93.9,148,88.9,161
"CC(C)C[C@H](NC(=O)[C@H](Cc1ccccc1)NC(=O)c1cnccn1)B(O)O [Bortezomib] + C/C(O)=C(\C#N)C(=O)Nc1cc(Br)ccc1Br [LFM-A13] (first compound 0.001 µM, partner dose 2 µM)",98.1,608,112,177,400,82.4
"Cn1cc(C2=C(c3cn(C4CCN(Cc5ccccn5)CC4)c4ccccc34)C(=O)NC2=O)c2ccccc21 [Enzastaurin] + COc1ccc(-c2ccc3c(N4CCOCC4)nc(N4C[C@@H](C)O[C@@H](C)C4)nc3n2)cc1CO [KU0063794] (first compound 0.8 µM, partner dose 0.02 µM)",109,35.5,84.8,158,102,34
"C[As](C)SC[C@H](NC(=O)CC[C@H](N)C(=O)O)C(=O)NCC(=O)O [Darinaparsin] + COc1ccc(Cl)c(Nc2nc3ccccc3nc2NS(=O)(=O)c2cccc(NC(=O)C(C)(C)N)c2)c1 [XL147] (first compound 0.4 µM, partner dose 0.8 µM)",58.3,146,102,94.5,98.9,197
"Cn1cc(C2=C(c3cn(C4CCN(Cc5ccccn5)CC4)c4ccccc34)C(=O)NC2=O)c2ccccc21 [Enzastaurin] + C[As](C)SC[C@H](NC(=O)CC[C@H](N)C(=O)O)C(=O)NCC(=O)O [Darinaparsin] (first compound 0.8 µM, partner dose 0.4 µM)",69.8,29.9,107,25.9,88.1,53.7
"O=C(Nc1cccc(Cl)c1)Nc1ncc(CCNc2ncnc3ccsc23)s1 + Cc1cc(SCc2sc(-c3ccc(C(F)(F)F)c(F)c3)nc2C)ccc1OCC(=O)O [GW0742] (first compound 0.0008 µM, partner dose 2 µM)",187,148,107,55.2,87.9,110
"C[C@]12O[C@H](C[C@]1(O)CO)n1c3ccccc3c3c4c(c5c6ccccc6n2c5c31)CNC4=O [Lestaurtinib] + O=C(Nc1ccccc1)c1cc([N+](=O)[O-])ccc1Cl [GW9662] (first compound 0.004 µM, partner dose 2 µM)",26.2,480,96.7,60.1,92.9,57.7
"COc1ccc(C2=N[C@@H](c3ccc(Cl)cc3)[C@@H](c3ccc(Cl)cc3)N2C(=O)N2CCNC(=O)C2)c(OC(C)C)c1 [Nutlin-3] + C[As](C)SC[C@H](NC(=O)CC[C@H](N)C(=O)O)C(=O)NCC(=O)O [Darinaparsin] (first compound 0.1 µM, partner dose 0.4 µM)",104,171,161,35.6,96,162
"N#Cc1c(O)c2c(-c3ccc(-c4ccccc4O)cc3)csc2[nH]c1=O + O=C(Oc1ccc([N+](=O)[O-])cc1)N1CCC(C(O)(c2ccc3c(c2)OCO3)c2ccc3c(c2)OCO3)CC1 [JZL184] (first compound 2 µM, partner dose 1 µM)",38.9,142,87.9,221,83.5,67.4
"CCCS(=O)(=O)Nc1ccc(F)c(C(=O)c2c[nH]c3ncc(Cl)cc23)c1F + C[As](C)SC[C@H](NC(=O)CC[C@H](N)C(=O)O)C(=O)NCC(=O)O [Darinaparsin] (first compound 0.08 µM, partner dose 0.4 µM)",78,84.5,88,102,98.9,70.2
"C[C@]12O[C@H](C[C@]1(O)CO)n1c3ccccc3c3c4c(c5c6ccccc6n2c5c31)CNC4=O [Lestaurtinib] + Cc1ccc(NC(=O)c2cccc(N(C)C)c2)cc1NC(=O)c1ccc(O)cc1 [ZM336372] (first compound 0.004 µM, partner dose 2 µM)",122,92,90.7,85.9,96.4,125
"Cn1cc(C2=C(c3cn(C4CCN(Cc5ccccn5)CC4)c4ccccc34)C(=O)NC2=O)c2ccccc21 [Enzastaurin] + CC(C)(C)c1cnc(CSc2cnc(NC(=O)C3CCNCC3)s2)o1 [SNS-032] (first compound 0.8 µM, partner dose 0.01 µM)",64.5,124,112,31.1,79.1,190
"O=C(O)C(=O)Nc1sc2c(c1C(=O)O)CCNC2 + C/C(O)=C(\C#N)C(=O)Nc1cc(Br)ccc1Br [LFM-A13] (first compound 1.66667 µM, partner dose 2 µM)",54.2,55.7,148,115,92.8,137
"C#Cc1cccc(Nc2ncnc3cc(OCCOC)c(OCCOC)cc23)c1 [erlotinib] + O=C(Oc1ccc([N+](=O)[O-])cc1)N1CCC(C(O)(c2ccc3c(c2)OCO3)c2ccc3c(c2)OCO3)CC1 [JZL184] (first compound 0.8 µM, partner dose 1 µM)",69.8,50.7,117,78.3,97.8,80.6
"N.N.[Cl][Pt][Cl] [cisplatin] + O=C(O)c1ccc2c(c1)nc(Nc1cccc(Cl)c1)c1ccncc12 [CX4945] (first compound 1.6 µM, partner dose 0.4 µM)",202,416,94.6,23.8,110,51.4
"COc1cc([C@@H]2c3cc4c(cc3[C@@H](O[C@@H]3O[C@@H]5CO[C@@H](C)O[C@H]5[C@H](O)[C@H]3O)[C@H]3COC(=O)[C@H]23)OCO4)cc(OC)c1O [etoposide] + C[C@]12O[C@H](C[C@]1(O)CO)n1c3ccccc3c3c4c(c5c6ccccc6n2c5c31)CNC4=O [Lestaurtinib] (first compound 0.02 µM, partner dose 0.004 µM)",123,96.7,96.3,38.9,85.1,91.3
"Cn1cc(C2=C(c3cn(C4CCN(Cc5ccccn5)CC4)c4ccccc34)C(=O)NC2=O)c2ccccc21 [Enzastaurin] + C/C(O)=C(\C#N)C(=O)Nc1cc(Br)ccc1Br [LFM-A13] (first compound 0.8 µM, partner dose 2 µM)",78.3,85.7,224,40.9,101,102
"C[As](C)SC[C@H](NC(=O)CC[C@H](N)C(=O)O)C(=O)NCC(=O)O [Darinaparsin] + CCc1ccc(CCOc2ccc(CC3SC(=O)NC3=O)cc2)nc1 [pioglitazone] (first compound 0.4 µM, partner dose 2 µM)",69.9,107,105,82.3,74.4,77.9
"NC1(c2ccc(-c3nc4ccn5c(=O)[nH]nc5c4cc3-c3ccccc3)cc2)CCC1 + N.N.[Cl][Pt][Cl] [cisplatin] (first compound 0.4 µM, partner dose 1.6 µM)",165,79.6,105,56.6,93,47.4
"COc1ccc(COc2ccc(Cc3cnc(N)nc3N)cc2OC)cc1 + C/C(O)=C(\C#N)C(=O)Nc1cc(Br)ccc1Br [LFM-A13] (first compound 1 µM, partner dose 2 µM)",206,63.6,112,79,76.8,77.1
"Cn1cc(C2=C(c3cn(C4CCN(Cc5ccccn5)CC4)c4ccccc34)C(=O)NC2=O)c2ccccc21 [Enzastaurin] + Oc1cc(-c2nc(-c3ccccc3)[nH]c2-c2ccncc2)ccc1Cl [L779450] (first compound 0.8 µM, partner dose 0.2 µM)",180,94,87.8,85.4,85.5,118

# Some of the entries above, reformatted.
Structure (SMILES)	cleaved PARP positive nuclei fraction (WM115) [%]	cleaved PARP positive nuclei fraction (WM1716) [%]	cleaved PARP positive nuclei fraction (WM1745) [%]	cleaved PARP positive nuclei fraction (WM3526) [%]	cleaved PARP positive nuclei fraction (WM3619) [%]	cleaved PARP positive nuclei fraction (WM451Lu) [%]
N.N.[Cl][Pt][Cl] [cisplatin] + NC(=O)Nc1cc(-c2cccc(F)c2)sc1C(=O)N[C@H]1CCCNC1 [AZD7762] (first compound 1.6 µM, partner dose 0.02 µM)	145	47.4	91	62.2	102	128
C#Cc1cccc(Nc2ncnc3cc(OCCOC)c(OCCOC)cc23)c1 [erlotinib] + O=C(Oc1ccc([N+](=O)[O-])cc1)N1CCC(C(O)(c2ccc3c(c2)OCO3)c2ccc3c(c2)OCO3)CC1 [JZL184] (first compound 0.8 µM, partner dose 1 µM)	69.8	50.7	117	78.3	97.8	80.6
